Results are given in words; binding and its absence hold for the method and conditions named.
Biological target: MBP-tagged MCM9 (human) (UniProt Q9NXL9)
Assay: mass photometry; protein alone in solution, no DNA; 50-200 nM final protein in 50 mM Tris-HCl pH 7.5, 100 mM NaCl; oligomeric state of MCM8-9 unchanged with ATP-γ-S; both purified

The chains behind the UniProt entries cited, without tags or fusion partners.
UniProt Q9NXL9: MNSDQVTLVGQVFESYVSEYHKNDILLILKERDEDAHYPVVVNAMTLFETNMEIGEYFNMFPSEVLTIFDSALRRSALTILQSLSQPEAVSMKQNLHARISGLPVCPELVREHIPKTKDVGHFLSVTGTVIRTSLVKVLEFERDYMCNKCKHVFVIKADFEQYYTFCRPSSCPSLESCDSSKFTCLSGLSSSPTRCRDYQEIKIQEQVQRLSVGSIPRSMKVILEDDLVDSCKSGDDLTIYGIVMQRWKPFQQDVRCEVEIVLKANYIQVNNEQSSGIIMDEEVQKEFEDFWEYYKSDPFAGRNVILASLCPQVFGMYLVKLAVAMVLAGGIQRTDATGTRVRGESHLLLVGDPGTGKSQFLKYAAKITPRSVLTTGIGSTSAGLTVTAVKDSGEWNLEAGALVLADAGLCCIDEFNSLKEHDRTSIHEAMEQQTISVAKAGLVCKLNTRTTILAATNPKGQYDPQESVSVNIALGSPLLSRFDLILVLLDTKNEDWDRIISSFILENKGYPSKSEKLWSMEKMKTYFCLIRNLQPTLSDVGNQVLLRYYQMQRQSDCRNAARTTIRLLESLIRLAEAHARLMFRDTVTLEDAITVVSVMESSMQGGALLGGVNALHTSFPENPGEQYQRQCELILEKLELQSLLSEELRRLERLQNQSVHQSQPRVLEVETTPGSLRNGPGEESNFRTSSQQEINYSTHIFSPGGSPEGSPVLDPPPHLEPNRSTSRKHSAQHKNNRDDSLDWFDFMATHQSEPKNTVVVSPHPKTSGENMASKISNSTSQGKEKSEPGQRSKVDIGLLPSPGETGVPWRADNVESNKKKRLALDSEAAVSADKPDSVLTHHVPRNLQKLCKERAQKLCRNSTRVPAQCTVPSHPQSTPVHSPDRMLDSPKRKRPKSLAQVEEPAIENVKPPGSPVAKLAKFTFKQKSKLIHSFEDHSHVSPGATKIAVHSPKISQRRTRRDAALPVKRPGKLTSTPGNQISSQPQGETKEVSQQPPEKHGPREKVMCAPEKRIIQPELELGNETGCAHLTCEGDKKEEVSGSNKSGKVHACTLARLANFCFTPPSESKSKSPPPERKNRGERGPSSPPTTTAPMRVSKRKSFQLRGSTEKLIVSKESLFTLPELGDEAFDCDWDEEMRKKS

Q: Which binding does the source give for “MBP-tagged MCM9 (from UniProt Q9NXL9 1-1143)” here?
A: no binding
